Publication PMC8416862 (Clinical Pharmacokinetics, 2021)

Experiment: Trial 2: plasma pharmacokinetics of single-dose furosemide and rosuvastatin
Assay type: in vivo, healthy male and female subjects
Conditions: single dose co-administered with oral semaglutide versus alone

- increase in total exposure: 28%
SMILES: NS(=O)(=O)c1cc(C(=O)O)c(NCc2ccco2)cc1Cl [Furosemide, furosemide]
